Results deposited as PubChem BioAssay AID1159584 (Peter MacCallum Cancer Centre, 2016)

- Test: 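Genes whose loss is lethal only together with E-cadherin loss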 (primary screen)
- System: human MCF10A breast epithelial cells, parental and CDH1-null
- Knock-down reagent: siRNA against human genes
- Measured: 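Cell viability by CellTiter-Glo ATP luminescence, each line scaled to the mean of mock wells across plates, then CDH1-null over parental ratio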
- Direction: CDH1-null / parental viability ratio: higher = CDH1-null cells survive relatively better than parental; CDH1-null viability vs mock: higher = more viable CDH1-null cells
This is one part, drawn at random, of about 18,000 reagents. Further read-outs or replicates are left out here. Not stated in the record: the amount of reagent, the time to read-out.

{"gene knocked down": "BTN3A3 (butyrophilin subfamily 3 member A3)", "CDH1-null / parental viability ratio": 1.24, "CDH1-null viability vs mock (fraction of mock)": 0.47}
{"gene knocked down": "LRRN1 (leucine rich repeat neuronal 1)", "CDH1-null / parental viability ratio": 1.03, "CDH1-null viability vs mock (fraction of mock)": 0.38}
{"gene knocked down": "STX11 (syntaxin 11)", "CDH1-null / parental viability ratio": 1.3, "CDH1-null viability vs mock (fraction of mock)": 1.07}
{"gene knocked down": "SDK1 (sidekick cell adhesion molecule 1)", "CDH1-null / parental viability ratio": 0.98, "CDH1-null viability vs mock (fraction of mock)": 0.65}
{"gene knocked down": "RASSF7 (Ras association domain family member 7)", "CDH1-null / parental viability ratio": 1.02, "CDH1-null viability vs mock (fraction of mock)": 0.52}
{"gene knocked down": "EFCAB5 (EF-hand calcium binding domain 5)", "CDH1-null / parental viability ratio": 1.26, "CDH1-null viability vs mock (fraction of mock)": 0.88}
{"gene knocked down": "ADAT1 (adenosine deaminase tRNA specific 1)", "CDH1-null / parental viability ratio": 0.78, "CDH1-null viability vs mock (fraction of mock)": 0.5}
{"gene knocked down": "IL11RA (interleukin 11 receptor subunit alpha)", "CDH1-null / parental viability ratio": 1.15, "CDH1-null viability vs mock (fraction of mock)": 1.08}
{"gene knocked down": "MFAP3 (microfibril associated protein 3)", "CDH1-null / parental viability ratio": 1.1, "CDH1-null viability vs mock (fraction of mock)": 0.99}
{"gene knocked down": "ADA (adenosine deaminase)", "CDH1-null / parental viability ratio": 0.96, "CDH1-null viability vs mock (fraction of mock)": 0.73}
{"gene knocked down": "ADORA2B (adenosine A2b receptor)", "CDH1-null / parental viability ratio": 0.91, "CDH1-null viability vs mock (fraction of mock)": 0.88}
{"gene knocked down": "PRSS53 (serine protease 53)", "CDH1-null / parental viability ratio": 0.81, "CDH1-null viability vs mock (fraction of mock)": 0.84}
{"gene knocked down": "CFAP57 (cilia and flagella associated protein 57)", "CDH1-null / parental viability ratio": 0.89, "CDH1-null viability vs mock (fraction of mock)": 0.74}
{"gene knocked down": "PRODH (proline dehydrogenase 1)", "CDH1-null / parental viability ratio": 1.06, "CDH1-null viability vs mock (fraction of mock)": 0.86}
{"gene knocked down": "LINC01587 (long independently transcribed non-coding RNA 1587)", "CDH1-null / parental viability ratio": 1.05, "CDH1-null viability vs mock (fraction of mock)": 0.98}
{"gene knocked down": "THSD4 (thrombospondin type 1 domain containing 4)", "CDH1-null / parental viability ratio": 1, "CDH1-null viability vs mock (fraction of mock)": 0.7}
{"gene knocked down": "KRT36 (keratin 36)", "CDH1-null / parental viability ratio": 1.24, "CDH1-null viability vs mock (fraction of mock)": 1.04}
{"gene knocked down": "RPL8 (ribosomal protein L8)", "CDH1-null / parental viability ratio": 1.5, "CDH1-null viability vs mock (fraction of mock)": 0.45}
{"gene knocked down": "BCAM (basal cell adhesion molecule (Lutheran blood group))", "CDH1-null / parental viability ratio": 0.66, "CDH1-null viability vs mock (fraction of mock)": 0.59}
{"gene knocked down": "PSMB8 (proteasome 20S subunit beta 8)", "CDH1-null / parental viability ratio": 1.09, "CDH1-null viability vs mock (fraction of mock)": 0.87}
{"gene knocked down": "TRPC1", "CDH1-null / parental viability ratio": 0.98, "CDH1-null viability vs mock (fraction of mock)": 0.63}
{"gene knocked down": "INPP5K (inositol polyphosphate-5-phosphatase K)", "CDH1-null / parental viability ratio": 1.15, "CDH1-null viability vs mock (fraction of mock)": 0.94}
{"gene knocked down": "PSMB1 (proteasome 20S subunit beta 1)", "CDH1-null / parental viability ratio": 1.37, "CDH1-null viability vs mock (fraction of mock)": 0.52}
{"gene knocked down": "POLR1G (RNA polymerase I subunit G)", "CDH1-null / parental viability ratio": 1.1, "CDH1-null viability vs mock (fraction of mock)": 0.53}
{"gene knocked down": "DENND6B (DENN domain containing 6B)", "CDH1-null / parental viability ratio": 1.13, "CDH1-null viability vs mock (fraction of mock)": 0.68}
{"gene knocked down": "PPL (periplakin)", "CDH1-null / parental viability ratio": 0.88, "CDH1-null viability vs mock (fraction of mock)": 0.72}
{"gene knocked down": "PLXDC1 (plexin domain containing 1)", "CDH1-null / parental viability ratio": 1.43, "CDH1-null viability vs mock (fraction of mock)": 0.73}
{"gene knocked down": "AGGF1 (angiogenic factor with G-patch and FHA domains 1)", "CDH1-null / parental viability ratio": 1.12, "CDH1-null viability vs mock (fraction of mock)": 0.9}
{"gene knocked down": "ITGB2 (integrin subunit beta 2)", "CDH1-null / parental viability ratio": 0.99, "CDH1-null viability vs mock (fraction of mock)": 0.74}
{"gene knocked down": "RRAGD (Ras related GTP binding D)", "CDH1-null / parental viability ratio": 1.21, "CDH1-null viability vs mock (fraction of mock)": 1.19}
{"gene knocked down": "IPO8 (importin 8)", "CDH1-null / parental viability ratio": 1.18, "CDH1-null viability vs mock (fraction of mock)": 1.04}
{"gene knocked down": "GALT (galactose-1-phosphate uridylyltransferase)", "CDH1-null / parental viability ratio": 1.11, "CDH1-null viability vs mock (fraction of mock)": 0.78}
{"gene knocked down": "PRELID2 (PRELI domain containing 2)", "CDH1-null / parental viability ratio": 0.91, "CDH1-null viability vs mock (fraction of mock)": 0.86}
{"gene knocked down": "TERT (telomerase reverse transcriptase)", "CDH1-null / parental viability ratio": 0.96, "CDH1-null viability vs mock (fraction of mock)": 0.9}
{"gene knocked down": "RPH3AL (rabphilin 3A like (without C2 domains))", "CDH1-null / parental viability ratio": 1.24, "CDH1-null viability vs mock (fraction of mock)": 1.04}
{"gene knocked down": "RDH12 (retinol dehydrogenase 12)", "CDH1-null / parental viability ratio": 0.8, "CDH1-null viability vs mock (fraction of mock)": 0.72}
{"gene knocked down": "LRP10 (LDL receptor related protein 10)", "CDH1-null / parental viability ratio": 0.99, "CDH1-null viability vs mock (fraction of mock)": 1.05}
{"gene knocked down": "UBE2M (ubiquitin conjugating enzyme E2 M)", "CDH1-null / parental viability ratio": 1.13, "CDH1-null viability vs mock (fraction of mock)": 0.6}
{"gene knocked down": "GSG1 (germ cell associated 1)", "CDH1-null / parental viability ratio": 1.43, "CDH1-null viability vs mock (fraction of mock)": 0.8}
{"gene knocked down": "ZNF436 (zinc finger protein 436)", "CDH1-null / parental viability ratio": 1.03, "CDH1-null viability vs mock (fraction of mock)": 1.04}
{"gene knocked down": "OR4F29 (olfactory receptor family 4 subfamily F member 29)", "CDH1-null / parental viability ratio": 1.31, "CDH1-null viability vs mock (fraction of mock)": 0.94}
{"gene knocked down": "PCNX4 (pecanex 4)", "CDH1-null / parental viability ratio": 0.77, "CDH1-null viability vs mock (fraction of mock)": 0.88}
{"gene knocked down": "MTMR4 (myotubularin related protein 4)", "CDH1-null / parental viability ratio": 1.41, "CDH1-null viability vs mock (fraction of mock)": 0.82}
{"gene knocked down": "HGH1 (HGH1 cochaperone)", "CDH1-null / parental viability ratio": 0.94, "CDH1-null viability vs mock (fraction of mock)": 0.66}
{"gene knocked down": "NKG7 (natural killer cell granule protein 7)", "CDH1-null / parental viability ratio": 1.13, "CDH1-null viability vs mock (fraction of mock)": 0.95}

7 successive records from above, for reference:
{"gene knocked down": "PRELID2 (PRELI domain containing 2)", "CDH1-null / parental viability ratio": 0.91, "CDH1-null viability vs mock (fraction of mock)": 0.86}
{"gene knocked down": "TERT (telomerase reverse transcriptase)", "CDH1-null / parental viability ratio": 0.96, "CDH1-null viability vs mock (fraction of mock)": 0.9}
{"gene knocked down": "RPH3AL (rabphilin 3A like (without C2 domains))", "CDH1-null / parental viability ratio": 1.24, "CDH1-null viability vs mock (fraction of mock)": 1.04}
{"gene knocked down": "RDH12 (retinol dehydrogenase 12)", "CDH1-null / parental viability ratio": 0.8, "CDH1-null viability vs mock (fraction of mock)": 0.72}
{"gene knocked down": "LRP10 (LDL receptor related protein 10)", "CDH1-null / parental viability ratio": 0.99, "CDH1-null viability vs mock (fraction of mock)": 1.05}
{"gene knocked down": "UBE2M (ubiquitin conjugating enzyme E2 M)", "CDH1-null / parental viability ratio": 1.13, "CDH1-null viability vs mock (fraction of mock)": 0.6}
{"gene knocked down": "GSG1 (germ cell associated 1)", "CDH1-null / parental viability ratio": 1.43, "CDH1-null viability vs mock (fraction of mock)": 0.8}
